Paper PMC10236072, “Microwave-assisted synthesis of [^52Mn]Mn-porphyrins: Applications in cell and liposome radiolabelling” (Nuclear Medicine and Biology, 2022)

Assay: Liposome radiolabelling with size exclusion purification
Details: incubated 30 min at 50 °C, G-25 size exclusion, n = 3

[Cl][52Mn][Cl] [Buffered ^52Mn, [^52Mn]MnCl2]
liposome labelling efficiency (% activity eluting with the liposomes) (listed as free ^52Mn): 0.4 ± 0.1% | liposome labelling efficiency (% activity eluting with the liposomes) (listed as unchelated ^52Mn): unable to label
